Experimental data: patent publication US10525115B2 (Immatics Biotechnologies GmbH, priority 2014, dated 2020)

How the values were obtained:
[1] = tested on: cancer tissues in comparison to non-cancerous tissues and organs; assay: Presentation profile / over-presentation by label-free LC-MS (XPRESIDENT), tumor versus normal tissues, other proliferative diseases; design: species or system human; conditions: other proliferative diseases / organs (other than AML) that over- or exclusively present the peptide; Table 5
primary AML samples = assay: HLA class II ligandome analysis (LC-MS/MS) of primary AML samples; design: species or system human; conditions: for Number of positive AMLs: HLA class II ligandome; for Number of positive AMLs / rep. frequency in AMLs: AML patients n=12
[2] = source protein level, HLA class II

| Substance | Proliferative disease and location thereof [1] | Number of positive AMLs (primary AML samples) | identified on patients (positive/total) (primary AML samples; HLA class II, source protein level) | rep. frequency in AMLs (primary AML samples; [2]) [%] |
| --- | --- | --- | --- | --- |
| 448 (APVELILSDETLPAPE; listed as Homo sapiens) [compound 448] | liver, hepatocellular carcinoma, cancer | 3 |  |  |
| 449 (ETPDFQLFKNGVAQEPV; listed as Homo sapiens) [compound 449] | liver, hepatocellular carcinoma, cancer | 1 |  |  |
| 450 (LAPLEGARFALVRED; listed as Homo sapiens) [compound 450] | liver, hepatocellular carcinoma, cancer | 2 |  |  |
| 451 (SPDRIFFHLNAVALGD; listed as Homo sapiens) [compound 451] | liver, hepatocellular carcinoma, cancer | 1 |  |  |
| 452 (SPDRIFFHLNAVALGDG; listed as Homo sapiens) [compound 452] | liver, hepatocellular carcinoma, cancer | 2 |  |  |
| 453 (EEMRKLQATVQELQKR; listed as Homo sapiens) [compound 453] | lymph node, non-Hodgkin's lymphoma | 1 |  |  |
| 454 (EEPLSLQELDTSSG; listed as Homo sapiens) [compound 454] | lymph node, non-Hodgkin's lymphoma | 4 |  |  |
| 455 (EMRKLQATVQELQKR; listed as Homo sapiens) [compound 455] | lymph node, non-Hodgkin's lymphoma | 1 |  |  |
| 456 (HLEEPLSLQELDTSSG; listed as Homo sapiens) [compound 456] | lymph node, non-Hodgkin's lymphoma | 1 |  |  |
| 457 (LEEPLSLQELDTSSG; listed as Homo sapiens) [compound 457] | lymph node, non-Hodgkin's lymphoma | 2 |  |  |
| 462 (GVVHSFSHNVGPGDK; listed as Homo sapiens) [compound 462] | liver, hepatocellular carcinoma, cancer, lung, adenocarcinoma | 2 |  |  |
| 463 (GVVHSFSHNVGPGDKY; listed as Homo sapiens) [compound 463] | liver, hepatocellular carcinoma, cancer, lung, adenocarcinoma | 1 |  |  |
| 464 (GVVHSFSHNVGPGDKYT; listed as Homo sapiens) [compound 464] | liver, hepatocellular carcinoma, cancer, lung, adenocarcinoma | 1 |  |  |
| 465 (KTEEFEVTKTAVAHRP; listed as Homo sapiens) [compound 465] | liver, hepatocellular carcinoma, cancer, lung, adenocarcinoma | 1 |  |  |
| 466 (KTEEFEVTKTAVAHRPG; listed as Homo sapiens) [compound 466] | liver, hepatocellular carcinoma, cancer, lung, adenocarcinoma | 3 |  |  |
| 467 (VRPGGVVHSFSHNVGPGDK; listed as Homo sapiens) [compound 467] | liver, hepatocellular carcinoma, cancer, lung, adenocarcinoma | 1 |  |  |
| 468 (VRPGGVVHSFSHNVGPGDKYT; listed as Homo sapiens) [compound 468] | liver, hepatocellular carcinoma, cancer, lung, adenocarcinoma | 1 |  |  |
| 469 (AEKGVRTLTAAAVSGAQ; listed as Homo sapiens) [compound 469] | pancreas, adenocarcinoma, bone, giant cell tumor; of bone | 1 |  |  |
| 470 (AQPILSKLEPQIASASE; listed as Homo sapiens) [compound 470] | pancreas, adenocarcinoma, bone, giant cell tumor; of bone | 1 |  |  |
| 471 (EKGVRTLTAAAVSGAQ; listed as Homo sapiens) [compound 471] | pancreas, adenocarcinoma, bone, giant cell tumor; of bone | 3 |  |  |
| 472 (EKGVRTLTAAAVSGAQP; listed as Homo sapiens) [compound 472] | pancreas, adenocarcinoma, bone, giant cell tumor; of bone | 1 |  |  |
| 473 (GVRTLTAAAVSGAQ; listed as Homo sapiens) [compound 473] | pancreas, adenocarcinoma, bone, giant cell tumor; of bone | 1 |  |  |

| Substance | Proliferative disease and location thereof [1] | Number of positive AMLs (primary AML samples) | identified on patients (positive/total) (primary AML samples; HLA class II, source protein level) | rep. frequency in AMLs (primary AML samples; [2]) [%] |
| --- | --- | --- | --- | --- |
| 474 (KGVRTLTAAAVSGAQ; listed as Homo sapiens) [compound 474] | pancreas, adenocarcinoma, bone, giant cell tumor; of bone | 1 |  |  |
| 475 (DVNEYAPVFKEKSYK; listed as Homo sapiens) [compound 475] | brain, glioblastoma, parotid gland, pleomorphic; adenoma | 1 |  |  |
| 476 (HRSFVDLSGHNLA; listed as Homo sapiens) [compound 476] | brain, glioblastoma, parotid gland, pleomorphic; adenoma | 1 |  |  |
| 477 (HRSFVDLSGHNLANPH; listed as Homo sapiens) [compound 477] | brain, glioblastoma, parotid gland, pleomorphic; adenoma | 1 |  |  |
| 572 (GNSRSAPPTRGPPPSYGGSSRY; listed as Homo sapiens) [compound 572] |  | 1 |  |  |
| 573 (RDYGHSSSRDDYPS; listed as Homo sapiens) [compound 573] |  | 1 |  |  |
| 574 (SPRDDGYSTKDSY; listed as Homo sapiens) [compound 574] |  | 1 |  |  |
| 585 (PEFDGKRFQNVAK; listed as Homo sapiens) [compound 585] |  | 1 |  |  |
| 586 (PEFDGKRFQNVAKE; listed as Homo sapiens) [compound 586] |  | 2 |  |  |
| 587 (ALPEFDGKRFQNVAKEG; listed as Homo sapiens) [compound 587] |  | 1 |  |  |
| 599 (FIGNIAVNHAPVSPR; listed as Homo sapiens) [compound 599] |  | 1 |  |  |
| 600 (FIGNIAVNHAPVSPRPG; listed as Homo sapiens) [compound 600] |  | 1 |  |  |
| 601 (IGNIAVNHAPVSPRP; listed as Homo sapiens) [compound 601] |  | 3 |  |  |
| 602 (IGNIAVNHAPVSPRPG; listed as Homo sapiens) [compound 602] |  | 1 |  |  |
| A1BG alpha-1-B glycoprotein: HLA class II ligandome-derived tumor-associated antigen (LiTAA), source protein of the peptides listed under it |  | 6 | 6/12 | 50 |
| COL1A1 collagen, type I, alpha 1: HLA class II ligandome-derived tumor-associated antigen (LiTAA), source protein of the peptides listed under it |  | 3 |  | 25.0 |
| CRP C-reactive protein, pentraxin-related: HLA class II ligandome-derived tumor-associated antigen (LiTAA), source protein of the peptides listed under it |  | 3 |  | 25.0 |
| HSP90B1 heat shock protein 90 kDa beta (Grp94), member 1: HLA class II ligandome-derived tumor-associated antigen (LiTAA), source protein of the peptides listed under it |  | 4 |  | 33.3 |
| HSPG2 heparan sulfate proteoglycan 2: HLA class II ligandome-derived tumor-associated antigen (LiTAA), source protein of the peptides listed under it |  | 4 |  | 33.3 |
| IFI30 interferon, gamma-inducible protein 30: HLA class II ligandome-derived tumor-associated antigen (LiTAA), source protein of the peptides listed under it |  | 3 |  | 25.0 |
| TPM4 tropomyosin 4: HLA class II ligandome-derived tumor-associated antigen (LiTAA), source protein of the peptides listed under it |  | 3 |  | 25.0 |
| YARS tyrosyl-tRNA synthetase: HLA class II ligandome-derived tumor-associated antigen (LiTAA), source protein of the peptides listed under it |  | 3 |  | 25.0 |
